These are yes or no findings as the source states them, for the method shown. Binding seen in cells or lysates may run through a third protein. Here binding means that the protein was enriched with, or labelled near, the bait; the list need not be complete.

In test [1] the target is T1, mCherry::DRSH-1 (C. elegans) (UniProt O01326).
T1 sequence: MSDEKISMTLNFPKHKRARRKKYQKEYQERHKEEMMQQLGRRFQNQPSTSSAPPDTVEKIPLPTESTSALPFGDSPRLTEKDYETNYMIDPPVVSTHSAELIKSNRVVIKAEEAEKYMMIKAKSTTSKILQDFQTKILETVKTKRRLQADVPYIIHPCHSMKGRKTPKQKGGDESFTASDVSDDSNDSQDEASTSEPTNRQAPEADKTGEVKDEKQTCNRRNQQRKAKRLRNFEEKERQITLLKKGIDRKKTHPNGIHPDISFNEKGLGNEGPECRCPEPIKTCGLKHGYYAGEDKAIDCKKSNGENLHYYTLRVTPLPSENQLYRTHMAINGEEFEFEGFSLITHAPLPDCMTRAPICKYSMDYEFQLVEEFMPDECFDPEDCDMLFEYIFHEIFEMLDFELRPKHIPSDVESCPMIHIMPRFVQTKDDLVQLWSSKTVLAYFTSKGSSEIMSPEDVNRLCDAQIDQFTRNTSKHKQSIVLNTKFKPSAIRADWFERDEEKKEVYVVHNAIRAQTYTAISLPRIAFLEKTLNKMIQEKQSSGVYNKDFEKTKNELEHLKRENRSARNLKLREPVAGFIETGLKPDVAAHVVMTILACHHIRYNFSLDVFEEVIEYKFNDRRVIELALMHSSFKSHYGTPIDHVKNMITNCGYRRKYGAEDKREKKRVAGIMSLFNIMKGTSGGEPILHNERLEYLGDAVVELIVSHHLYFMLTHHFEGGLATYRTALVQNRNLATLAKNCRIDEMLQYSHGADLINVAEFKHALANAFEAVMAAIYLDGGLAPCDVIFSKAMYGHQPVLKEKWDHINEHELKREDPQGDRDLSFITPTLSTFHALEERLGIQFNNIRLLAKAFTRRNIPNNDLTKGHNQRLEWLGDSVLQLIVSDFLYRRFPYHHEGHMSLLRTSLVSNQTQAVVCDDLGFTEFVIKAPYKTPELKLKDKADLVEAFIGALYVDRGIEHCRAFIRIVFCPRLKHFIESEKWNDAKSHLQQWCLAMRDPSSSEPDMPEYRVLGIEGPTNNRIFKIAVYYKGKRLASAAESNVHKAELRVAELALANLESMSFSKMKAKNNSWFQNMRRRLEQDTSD
The experiment in a line: affinity purification with mass spectrometry; mCherry::DRSH-1 precipitated from gravid adult lysate with RFP-Trap magnetic agarose beads overnight at 4 °C; 25 mM Tris HCl pH 7.5, 150 mM NaCl, 1.5 mM MgCl2, 1 mM DTT, 0.1% Triton X-100; compared with wild-type animals; 4 biological replicates.

A further test deals with PASH-1::GFP (C. elegans). Nature of the test: affinity purification with mass spectrometry; PASH-1::GFP or PASH-1[G179R]::GFP precipitated from gravid adult lysate with GFP-Trap magnetic agarose beads overnight at 4 °C; 25 mM Tris HCl pH 7.5, 150 mM NaCl, 1.5 mM MgCl2, 1 mM DTT, 0.1% Triton X-100; compared with wild-type animals; 4 biological replicates.
The target of test [2] is PASH-1[G179R]::GFP (C. elegans). Described as above.

As to “PASH-1 (C. elegans (endogenous in C. elegans))”, in test [1], the binding result was “binds”.

B1: DRSH-1 (enzyme, UniProt O01326 1-1086)
chain: T1 sequence
B1: the binding result (in the test with PASH-1::GFP (C. elegans); in test [2]) was “binds” each time.

The record behind these values is PMC12219410.
